# Values joined by “and” are separate entries in the source; they are usually repeats but may differ in a detail not shown here. Equal entries are not always repeated. About 18,000 (4.4%) of roughly 410,000 compounds were called active. Inconclusive means that the source gave no clear call. Such entries were picked first, then a sample of the others. No stated cut-off is given here; in the data, active means activity change below about -60%; inconclusive means no clear call, values can overlap the other calls; inactive means above about -39%.
# Experiment: qHTS Assay for inhibitors of the human cytomegalovirus (HCMV)
# Conditions: HFF cells, HCMV-luciferase reporter, 72 h; at 57.5 µM; stronger effect = lower value
# Procedure, shortened: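 After 16 h attachment at 37C, HFF cells received test compound and HCMV-luciferase (1 PFU/cell); reporter luminescence read 72 h later, data normalized against buffer-only and known inhibitor Salinomycin.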
# On the % scale 0 is the no-effect control and ±100 the full control effect.
row,Structure (SMILES),"activity change, negative = inhibition"
1,COc1ccccc1S(=O)(=O)Cc1ccc(C(=O)N2CCN(c3ccc(C)cc3)C(C)C2)o1 (configuration not stated),inactive: -19.1%
2,CN(CC(=O)NC1CC1)S(=O)(=O)c1cc(Cl)ccc1Cl,inconclusive: -59.8%
3,COc1ccc(CCNC(=O)CN2C(=O)CSc3ccc(S(=O)(=O)N4CCOCC4)cc32)cc1OC,inconclusive: -42.4%
4,COc1ccc(C)cc1NC(=O)C(=O)NCCc1csc(-c2ccc(C)cc2)n1,inactive: 79.7%
5,O=C(O)/C=C\c1ccccc1Oc1cccc(Cl)c1,inconclusive: -49.3%
6,COc1nc(-c2cccs2)cc(-c2ccc(C)cc2)c1C#N,inconclusive: -47.1%
7,COc1cccc(-c2nn(C)c3sc(C(=O)NCc4ccc5c(c4)OCO5)cc23)c1,inactive: -26.3%
8,CCc1cc(-c2nnn(CCC3COCCO3)c2CC)cc(CC)c1-c1cn(CCc2c[nH]c3ccccc23)nn1 (configuration not stated),inactive: -17.2%
9,O=C1CN(C(=O)c2c(F)cccc2F)C(c2ccc(F)cc2)c2cc(Br)ccc2N1 (configuration not stated),inconclusive: -57.1%
10,COC(=O)c1cccc(NC(=O)Cc2coc3cc(OC)ccc23)c1,inconclusive: -40.5%
11,CCN(CC)CCNC(=O)c1ccc(NC(=O)c2c(C)nn(-c3ccc(F)cc3)c2Cl)cc1,inconclusive: -45%
12,Cc1ccc(NC(=S)N(CCCN2CCOCC2)Cc2cccs2)c(C)c1,inconclusive: -41.8%
13,O=C(CCCCCn1c(SCC(=O)c2ccccc2)nc2ccccc2c1=O)NCc1ccco1,inconclusive: -57.1%
14,CCOc1ccc(NC(=O)C(C)Sc2nnc3cc(C)c4ccccc4n23)cc1 (configuration not stated),inconclusive: -55.5%
15,Cc1nnc(NC(=O)c2nc(S(=O)(=O)Cc3ccccc3)ncc2Cl)s1,active: -108% and active: -110%
16,COc1ccc(C(=O)NCC(c2ccco2)N2CCc3ccccc32)cc1 (configuration not stated),inconclusive: -43.1%
17,Cc1ccc(NC(=O)CSc2nc3c(c(=O)[nH]2)CN(Cc2ccc4c(c2)OCO4)CC3)cc1C,inconclusive: -51%
18,COc1ccc(N2CCN(C(=O)CSc3c4c(nc5ccc(Cl)cc35)CCCC4)CC2)cc1,inconclusive: -47.2%
19,CC(Sc1nnc(C2CC2)n1C1CC1)C(=O)N(C)C1(C#N)CCCCC1 (configuration not stated),inconclusive: 0%
20,CCN1C(=O)[C@H]2[C@@H](c3ccc(-c4ccc(OC)cc4)cc3)N3CCCC[C@@]3(C(=O)OC)[C@H]2C1=O,inconclusive: -43.3%
21,N/C(=N\OC(=O)COc1ccc2ccccc2c1Br)c1cccnc1,inconclusive: -55.3%

# 5 of the compounds above, as tab-separated lines:
row	Structure (SMILES)	activity change, negative = inhibition
3	COc1ccc(CCNC(=O)CN2C(=O)CSc3ccc(S(=O)(=O)N4CCOCC4)cc32)cc1OC	inconclusive: -42.4%
4	COc1ccc(C)cc1NC(=O)C(=O)NCCc1csc(-c2ccc(C)cc2)n1	inactive: 79.7%
5	O=C(O)/C=C\c1ccccc1Oc1cccc(Cl)c1	inconclusive: -49.3%
6	COc1nc(-c2cccs2)cc(-c2ccc(C)cc2)c1C#N	inconclusive: -47.1%
7	COc1cccc(-c2nn(C)c3sc(C(=O)NCc4ccc5c(c4)OCO5)cc23)c1	inactive: -26.3%

# (list continues)

row,Structure (SMILES),"activity change, negative = inhibition"
1,COc1ccc(-c2noc(=O)n2CC(=O)N2CCC(Cc3ccccc3)CC2)cc1,inconclusive: -51.2%
2,COc1cccc(N(Cc2nnc3n2CCCCC3)C(=O)Nc2ccccc2)c1,inconclusive: -51.8%
3,CN(C)/C=C(\C#N)S(=O)(=O)c1ccc(Cl)cc1,inconclusive: -57.5%
4,CCOC(=O)C1=C[C@@H](C(C)(C)C)N(S(=O)(=O)c2ccc(C)cc2)[C@H]1c1cccc2ccccc12,inconclusive: -52.1%
5,Cc1oc(-c2ccccc2F)nc1CSCC(=O)N1CCN(c2ccccc2)CC1,inconclusive: -48.6%
6,N/C(=N\OC(=O)c1cccc(Br)c1)c1ccc([N+](=O)[O-])cc1,inactive: 18.6%
7,Cc1cccc(N2CCN(S(=O)(=O)c3ccc4c(c3)C(C(C)C)C(=O)N4)CC2)c1C (configuration not stated),inconclusive: -42.5%
8,COc1ccc(-c2noc(CCCC(=O)Nc3ccc(C(N)=O)cc3)n2)cc1,active: -89.7%
9,Cc1ccc(-c2nnc(SCC(=O)c3ccc(Cl)cc3)n2-c2ccccc2)cc1,inactive: 62.8%
10,O=c1c2ccccc2nc(SCc2cccc(F)c2)n1Cc1ccco1,inconclusive: -43.7%
11,Cc1ccc(CNC(=O)Cn2c(=O)c3sccc3n(Cc3ccc([N+](=O)[O-])cc3)c2=O)cc1,inconclusive: -56.2%
12,Cc1ccc(Cc2c(C)nc3nc(SCC(=O)NCCCN4CCCCCC4)nn3c2C)cc1,inconclusive: -55.5%
13,CC(C)(C)C(=O)Nc1ccc(S(=O)(=O)N2CCC(c3nc4ccccc4[nH]3)CC2)cc1,inactive: -34.6%
14,COc1cccc(CN2CCCN(CC(=O)Nc3ccc4c(c3)OCCO4)S2(=O)=O)c1,inactive: 12.1%
15,CNc1nc(-c2ccc([N+](=O)[O-])cc2)cs1,active: -74%
16,CCOc1ccc(C)cc1S(=O)(=O)n1ccc(C)n1,inconclusive: -48.2%
17,CCc1cccc(CC)c1NC(=O)Cn1c(=O)c(-c2cc(C)ccc2NC(C)=O)nc2ccccc21,inactive: -4.17%
18,Cc1cc(-n2c(C)cc(C(=O)COc3ccc4ccc(=O)oc4c3)c2C)no1,inconclusive: -51.4%
19,O=C(O)CCn1cc(C=C2C(=O)NC(=O)NC2=O)c(-c2cc3ccccc3oc2=O)n1,inconclusive: -48.7%
20,CCCc1cc(N2CCN(c3ccccc3)CC2)n2cnnc2n1,inconclusive: -47.7%
21,CCCCc1nc(SCCOC)c2c(=O)n(C)c(=O)n(C)c2n1,inconclusive: -40.7%

row,Structure (SMILES),"activity change, negative = inhibition"
1,Brc1ccc(CSc2nnc(-c3ccccn3)n2Cc2ccco2)cc1,inconclusive: -55%
2,CC(OC(=O)c1ccc(NC(=O)CC#N)cc1)C(=O)NC(c1ccccc1)c1ccccc1 (configuration not stated),inactive: -30.2%
3,Cc1ccc(SC(c2ccc(C)cc2)C(Cn2cncn2)C(=O)c2ccccc2)cc1 (configuration not stated),inactive: -14.8%
4,COc1ccc(N=Cc2c(O)n(CC3CCCO3)c(=O)[nH]c2=O)cc1 (configuration not stated),inactive: -17.1%
5,CCOc1cc(CNC(=O)c2ccccc2NC(=O)c2nsc3ccccc23)ccc1OC,active: -81.6%
6,COc1ccc(NC(=S)N2CCN(S(=O)(=O)c3ccc(C)cc3)CC2)cc1,active: -60.6%
7,C[C@@H]1CCCCO[C@H](CN(C)C(=O)Nc2cccc3ccccc23)[C@@H](C)CN([C@H](C)CO)C(=O)c2cc(NC(=O)c3ccccc3)ccc2O1,inactive: -21.5%
8,COc1ccc(CN(CC(=O)NC2CCCC2)C(=O)CN2C(=O)COc3ccccc32)cc1,inactive: -16.1%
9,CC(Sc1ccc(S(=O)(=O)N2CCN(C)CC2)cn1)C(=O)NC1CCCCC1 (configuration not stated),inconclusive: -40.8%
10,CC1(C(=O)NS(=O)(=O)c2ccccc2OC(F)(F)F)CCN1C(=O)c1ccccc1 (configuration not stated),inactive: 6.06%
11,COc1cc(Cl)ccc1OCc1cc(C(=O)N(C)CCc2c(C)n[nH]c2C)no1,inconclusive: -49.8%
12,COc1cc(C(=O)COC(=O)c2ccc3c(c2)OCCO3)cc(OC)c1OC,inactive: -14.2%
13,CCN1C(=O)CC(N2CCN(c3ccc(C(=O)c4ccncc4)cc3)CC2)C1=O (configuration not stated),inconclusive: -46.1%
14,CC(=O)Nc1ccc(CN2C(=O)C(Cc3ccccc3)ON=C2c2ncccc2C)cc1 (configuration not stated),inconclusive: -41.4%
15,CC(=O)Nc1c(-c2cc(=O)oc3cc(C)ccc23)oc2ccccc12,inconclusive: -47.1%
16,Cc1cccc(C)c1NC1=NCCCCC1,inconclusive: -50.1%
17,COCCn1c(SCc2cccc([N+](=O)[O-])c2)nc2ccccc2c1=O,inconclusive: -45.9%
18,CCCCN1C2=C(C(=O)CC(C)(C)C2)C(c2ccccc2)C2=C1c1ccccc1C2=O (configuration not stated),inconclusive: -50.9%
19,Cc1ccc(N(C)S(=O)(=O)c2ccc3c(c2)NC(=O)C(C)S3)cc1 (configuration not stated),inconclusive: -46.2%
20,COc1ccc(S(=O)(=O)c2c(Nc3c(C)cccc3C)sc(C(=O)c3ccc4c(c3)OCO4)c2N)cc1,active: -87.4%
21,Cc1oc(-c2cccc(Br)c2)[n+]([O-])c1C,inconclusive: -55%

row,Structure (SMILES),"activity change, negative = inhibition"
1,COc1ccc(N/N=C(/C)c2cnnc(-c3ccccc3)n2)cc1,inconclusive: -55.9%
2,COC(=O)C1=C(c2cccc(OCc3ccccc3)c2)C[C@@H]2CC[C@H]1N2C(=O)NCCCc1ccccc1,inconclusive: -40.8%
3,COc1cc(/C=N/NC(=O)Nc2ccccc2)ccc1OCCOc1ccccc1C,inconclusive: -50.9%
4,COc1ccc(C2=NCC(=S)Nc3ccc(Cl)cc32)cc1Cl,active: -62.8%
5,CN(c1nc2c(c(=O)n(C)c(=O)n2C)n1CC(=O)c1ccccc1)C1CCCCC1,inconclusive: -41.2%
6,CCc1cc2c(SCC(=O)NC3CC3)ncnc2s1,inconclusive: -40.4%
7,CCc1nc2ccccc2n1CC(O)COCC1CC=CCC1 (configuration not stated),inconclusive: -44.3%
8,COc1cc(CNC(=O)CCn2nc(C)c3c(C)n(-c4ccccc4)nc3c2=O)cc(OC)c1OC,inconclusive: -44%
9,Cn1c(=O)c2c(SCC(=O)NCc3ccco3)nc(-c3cccc(F)c3)nc2n(C)c1=O,inactive: 0.1%
10,O=C(CCCOc1ccc(Cl)cc1Cl)Nc1ccncc1,active: -60.7%
11,CCN(CC)CCN(Cc1cc2cc(C)cc(C)c2[nH]c1=O)C(=S)NCc1ccco1,inconclusive: -41%
12,CCC(=O)c1c[nH]c(C(=O)NCCCN2CCOCC2)c1,inactive: -9.37%
13,Cc1ccccc1CNC(=O)c1cccc(NC(=O)N2CCSc3ncccc32)c1,inactive: 0%
14,CCOC(=O)c1c(S(=O)(=O)N2CCCC(C(=O)Nc3cccc(C#N)c3)C2)c(C)n(C)c1C (configuration not stated),inactive: -32.7%
15,COc1cccc(C(=O)N2CCN(C(=O)c3cccc4ccccc34)CC2)c1OC,inconclusive: -49%
16,O=c1sc2ccccc2n1COc1ccccc1,active: -95%
17,COc1ccc(-c2nn(-c3ccccc3)cc2C(=O)N/N=C/c2ccc([N+](=O)[O-])o2)cc1,inconclusive: -41.6%
18,Cc1ccc2cc(CCNC(=O)Cc3cccs3)c(=O)[nH]c2c1,inconclusive: -51.9%
19,COCCN(C(=O)C1CC(=O)N(Cc2ccccc2)C1)c1nc(-c2ccc([N+](=O)[O-])cc2)cs1 (configuration not stated),inconclusive: -59.4%

# From PubChem BioAssay AID1259415 (National Center for Advancing Translational Sciences (NCATS), 2018)
